PubChem BioAssay AID504784 | Drosophila RNAi Screening Center – 2011
In all, the deposit lists about 17,000 reagents; shown is an unselected part of those that have a named target and a result. 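Each column is one replicate's B-score; the combined score over replicates was not deposited, so single values may mislead.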 The numbers tell different reagents against one gene apart. A plus sign joins genes that one reagent is predicted to hit. No sequences are given here.

Screen: 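Fly genes whose silencing alters how much lipid cells keep in droplets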 (primary screen)
Cell system: Drosophila Kc167 embryonic cells
Knock-down reagent: long dsRNA against Drosophila genes, about 250 ng dsRNA per well
Time to read-out: 4 days
Treatment: cells fed 400 µM oleic acid bound to BSA
Measured: 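Microscope images give a droplet-to-nucleus area ratio, taken as log and converted to a screen-wide B-score; higher values mean greater lipid storage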
Reading the numbers: droplet/nuclear area B-score: higher = more stored lipid (overstorage)

no.	gene	reagent no.	droplet/nuclear area B-score, replicate 1	droplet/nuclear area B-score, replicate 2	droplet/nuclear area B-score, replicate 3
1	CG10993	1	0.812	1.05	
2	CG11741	1	0.471	-1.26	
3	GC2	1	1.11	0.345	
4	His2B:CG33894 + His2B:CG33872 + His2B:CG33902 + 20 more	1	0.662	0.384	
5	CG42663	1	0.536	1.3	
6	CG42663	2	-1.2	0.0557	0.038
7	CG32055	1	-0.607	2.09	
8	Ugt36A1 + CG15418	1	1.24	-0.748	
9	betaNACtes1 (Nascent-associated complex beta-subunit-like, testis 1)	1	-0.0666	-0.00488	
10	Acp36DE (Accessory gland protein 36DE)	1	1.13	-0.848	
11	CG7730	1	-1.3	2.28	0
12	CG12523	1	-0.00414	0.0614	-1.89
13	CG42306 + Gint3	1	0.357	2.84	
14	CG9101	1	1.03	-1.31	
15	mthl7 (methuselah-like 7)	1	-0.763	2.09	
16	CG7968	1	0.376	0.415	
17	CG32856	1	0.883	-0.0441	
18	Cyp40 (Cyclophilin 40)	1	-0.347	-1.24	
19	nej (nejire)	1	-1.49	-0.542	-2.7
20	nej (nejire)	2	-0.0439	-0.606	-1.2
21	Rh4 (Rhodopsin 4)	1	0.127	-0.616	-1.31
22	CG4483	1	1.9	2.68	
23	TyrRS (Tyrosyl-tRNA synthetase)	1	0.944	0.427	-0.29
24	fh (frataxin)	1	-0.0235	-0.32	-0.00591
25	CG4036	1	-1.66	0.702	
26	Qsox2 (Quiescin sulfhydryl oxidase 2)	1	0.819	-1.6	
27	Men-b (Malic enzyme b)	1	1.11	1.41	
28	Root (Rootletin)	1	1.59	-0.723	
29	Sas-4 (Spindle assembly abnormal 4)	1	-1.93	0.758	
30	CG3625	1	-0.915	0.282	
31	SPH93 (Serine protease homolog 93)	1	0.161	-1.12	
32	CG3149	1	-0.587	0	-0.206
33	Cpsf73 (Cleavage and polyadenylation specificity factor 73)	1	0.138	2.49	
34	CG7857	1	-0.2	-0.424	
35	CG15721	1	0.295	-1.3	-0.193
36	CG33337	1	-0.609	-0.142	0.248
37	CG31516	1	-0.9	-0.0391	
38	CG32486	1	0.386	-0.62	
39	CG32486	2	-0.517	0.146	
40	CG32107	1	0.55	0.384	
41	CG8675	1	0.183	0.0994	
42	CG11790	1	-1.93	-0.128	
43	Tsp42El (Tetraspanin 42El)	1	-1.94	0.295	
44	CG11698	1		-1.5	
45	Kcmf1 (Potassium channel modulatory factor 1)	1	3.28	0.414	
46	Nipped-A	1	0.386	1.21	-0.13
47	Nipped-A	2	2.01	0.572	
48	Nipped-A	3	-3.67	3.63	
49	Nipped-A	4	0.796	0.665	
50	Nipped-A	5	2.85	-0.0518	
51	CG14416	1	-1.66	0.271	
52	arg (arginase)	1	-0.299		
53	CG2915	1	-0.521	-0.0923	
54	nonC (no-on-and-no-off transient C)	1	2.71	0.0963	0.444
55	nonC (no-on-and-no-off transient C)	2	-0.899	-1.38	
56	spag4 (sperm-associated antigen 4)	1	-0.419	1.21	
57	CG12057	1	-0.643	1.47	-1.74
58	Osi24 (Osiris 24)	1	-0.522	-0.0135	
59	CG10097 + CG10096	1	0.741	0.0281	
60	CG10097 + CG10096	2	-0.862	-0.401	
61	CG8160	1	-0.381	1.1	-0.637
62	CG8160	2	-0.934	-1.04	
63	Picot	1	-0.837		
64	CG13385	1	-0.213	1.35	
65	CG34281	1	1.57	-0.944	
66	Lis-1 (Lissencephaly-1)	1	-2.02	1.4	
67	CG9673	1	-0.0514		
68	CG14022	1	0.156	-0.592	
69	CG7131	1	-0.806	0.0287	
70	fd59A (forkhead domain 59A)	1	0.000754	0.0195	
71	dbe (dribble)	1	0.265	0.379	
72	CG7506	1	-0.11	-1.63	
73	CG5597	1	0.495	1.04	
74	CG43367 + CG32252 (retired record)	1	1.62	-1.39	
75	Ccs (Copper chaperone for superoxide dismutase)	1	0.45	1.19	
76	Vha14-2 (Vacuolar H[+] ATPase 14kD subunit 2)	1	1.07	0.402	
77	yellow-b	1	0.954	-0.301	
78	chb (chromosome bows)	1	1.24	-1.4	
79	CG31643	1	-0.243	-1.33	
80	hid (head involution defective)	1	0.711	0.0425	
81	CG13837	1	-0.595	-0.111	
82	CG30026	1	0.158	0.0119	
83	dpr20 (defective proboscis extension response 20)	1	2.88	-5.78	

7 neighbouring entries already listed, quoted:
no.	gene	reagent no.	droplet/nuclear area B-score, replicate 1	droplet/nuclear area B-score, replicate 2	droplet/nuclear area B-score, replicate 3
9	betaNACtes1 (Nascent-associated complex beta-subunit-like, testis 1)	1	-0.0666	-0.00488	
10	Acp36DE (Accessory gland protein 36DE)	1	1.13	-0.848	
11	CG7730	1	-1.3	2.28	0
12	CG12523	1	-0.00414	0.0614	-1.89
13	CG42306 + Gint3	1	0.357	2.84	
14	CG9101	1	1.03	-1.31	
15	mthl7 (methuselah-like 7)	1	-0.763	2.09	
